The other results are listed elsewhere or left out.
Assays:
Test in all cases: log2 fold change, soluble protein after heating vs DMSO (PISA); higher = thermal stabilisation; K562 cells, 10 uM, 30 min; active = over 0.2 and 3.5 SD of the protein, either way, in both replicates (recomputed)
[1] = compound: COC1=CC=C(C=C1)CN2C=CC3=C2C=C(C=C3)C(=O)NO
Outline: (§1)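 Soluble protein was defined as the supernatant after 21,000xg for 90 min. It came from K562 cells at 2×10^6 cells/mL given 10 μM compound for 30 min, heated in aliquots for 3 min across 48°C-58°C, pooled, and extracted in PBS with 0.5% NP-40 at 4°C, and was quantified by TMTpro 16plex LC-MS/MS with equalised channel sums. Thermal stability against control samples, from duplicates, is reported as log2 fold change.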

Protein sequences, listed by entry. Tags and fused reporters are not part of them. Lines headed by an entry give the natural chain unless they say otherwise; changes in a name come on top.
UniProt Q9BXI6: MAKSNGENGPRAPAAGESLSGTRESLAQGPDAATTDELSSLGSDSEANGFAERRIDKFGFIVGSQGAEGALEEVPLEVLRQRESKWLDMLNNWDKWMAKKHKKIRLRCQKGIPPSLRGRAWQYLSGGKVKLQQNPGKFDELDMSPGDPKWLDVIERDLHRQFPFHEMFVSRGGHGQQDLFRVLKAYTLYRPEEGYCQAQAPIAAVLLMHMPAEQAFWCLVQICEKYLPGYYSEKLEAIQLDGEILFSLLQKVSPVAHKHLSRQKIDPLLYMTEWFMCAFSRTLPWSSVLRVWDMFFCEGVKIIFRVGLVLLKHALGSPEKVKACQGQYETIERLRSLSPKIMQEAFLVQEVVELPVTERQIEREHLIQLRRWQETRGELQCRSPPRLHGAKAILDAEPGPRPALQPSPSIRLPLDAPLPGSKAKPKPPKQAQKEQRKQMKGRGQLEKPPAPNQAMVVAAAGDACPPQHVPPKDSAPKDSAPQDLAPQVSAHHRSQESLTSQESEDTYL
UniProt Q9UK61: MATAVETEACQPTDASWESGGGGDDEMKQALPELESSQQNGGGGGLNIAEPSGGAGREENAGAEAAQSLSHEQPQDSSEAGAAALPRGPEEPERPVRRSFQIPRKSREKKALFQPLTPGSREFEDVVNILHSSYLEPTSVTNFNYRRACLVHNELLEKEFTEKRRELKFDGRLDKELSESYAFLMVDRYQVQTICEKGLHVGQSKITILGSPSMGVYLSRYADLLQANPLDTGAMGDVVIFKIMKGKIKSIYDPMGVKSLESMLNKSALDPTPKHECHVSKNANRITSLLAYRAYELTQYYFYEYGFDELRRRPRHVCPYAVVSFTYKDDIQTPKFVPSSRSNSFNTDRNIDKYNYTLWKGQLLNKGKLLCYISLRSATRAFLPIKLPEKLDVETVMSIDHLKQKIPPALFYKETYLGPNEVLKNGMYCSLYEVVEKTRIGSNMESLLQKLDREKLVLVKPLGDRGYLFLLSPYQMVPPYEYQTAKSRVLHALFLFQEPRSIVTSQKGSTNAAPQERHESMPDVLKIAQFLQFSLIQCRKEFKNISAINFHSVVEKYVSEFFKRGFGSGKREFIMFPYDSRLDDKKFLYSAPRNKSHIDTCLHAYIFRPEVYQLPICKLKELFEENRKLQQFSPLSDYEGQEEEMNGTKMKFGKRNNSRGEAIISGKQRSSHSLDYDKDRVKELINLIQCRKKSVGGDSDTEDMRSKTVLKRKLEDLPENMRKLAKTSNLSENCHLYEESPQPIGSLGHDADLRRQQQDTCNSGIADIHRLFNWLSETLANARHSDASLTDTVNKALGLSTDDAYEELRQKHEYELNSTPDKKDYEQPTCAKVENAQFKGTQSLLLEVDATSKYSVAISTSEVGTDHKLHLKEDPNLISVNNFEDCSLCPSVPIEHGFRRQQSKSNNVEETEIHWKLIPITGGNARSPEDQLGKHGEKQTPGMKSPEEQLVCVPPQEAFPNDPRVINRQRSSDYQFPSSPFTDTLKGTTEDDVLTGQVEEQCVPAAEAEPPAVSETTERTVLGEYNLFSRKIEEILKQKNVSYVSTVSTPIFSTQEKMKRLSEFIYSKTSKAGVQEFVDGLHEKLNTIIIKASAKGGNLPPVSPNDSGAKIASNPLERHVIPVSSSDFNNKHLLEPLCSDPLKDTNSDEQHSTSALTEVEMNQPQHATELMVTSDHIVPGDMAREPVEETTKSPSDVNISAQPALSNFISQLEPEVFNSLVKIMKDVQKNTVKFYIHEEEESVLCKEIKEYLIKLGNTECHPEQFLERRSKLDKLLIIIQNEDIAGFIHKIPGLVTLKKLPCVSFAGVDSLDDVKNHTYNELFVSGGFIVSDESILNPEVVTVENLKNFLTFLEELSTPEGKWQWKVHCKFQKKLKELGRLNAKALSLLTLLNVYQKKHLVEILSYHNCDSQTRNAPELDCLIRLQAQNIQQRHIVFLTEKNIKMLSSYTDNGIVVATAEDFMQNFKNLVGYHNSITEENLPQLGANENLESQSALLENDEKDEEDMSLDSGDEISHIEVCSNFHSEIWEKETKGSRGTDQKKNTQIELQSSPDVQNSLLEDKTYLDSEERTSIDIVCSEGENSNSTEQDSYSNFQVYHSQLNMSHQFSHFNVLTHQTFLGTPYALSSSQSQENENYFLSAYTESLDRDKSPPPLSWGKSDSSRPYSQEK
UniProt Q6P1N9: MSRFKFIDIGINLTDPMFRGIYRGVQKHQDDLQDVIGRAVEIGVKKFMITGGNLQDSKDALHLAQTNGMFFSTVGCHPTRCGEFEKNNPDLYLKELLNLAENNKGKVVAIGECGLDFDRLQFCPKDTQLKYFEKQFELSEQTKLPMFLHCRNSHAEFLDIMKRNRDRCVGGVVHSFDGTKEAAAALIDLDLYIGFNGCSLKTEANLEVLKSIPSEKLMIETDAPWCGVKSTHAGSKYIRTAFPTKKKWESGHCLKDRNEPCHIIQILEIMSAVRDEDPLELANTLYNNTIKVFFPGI
UniProt O75486: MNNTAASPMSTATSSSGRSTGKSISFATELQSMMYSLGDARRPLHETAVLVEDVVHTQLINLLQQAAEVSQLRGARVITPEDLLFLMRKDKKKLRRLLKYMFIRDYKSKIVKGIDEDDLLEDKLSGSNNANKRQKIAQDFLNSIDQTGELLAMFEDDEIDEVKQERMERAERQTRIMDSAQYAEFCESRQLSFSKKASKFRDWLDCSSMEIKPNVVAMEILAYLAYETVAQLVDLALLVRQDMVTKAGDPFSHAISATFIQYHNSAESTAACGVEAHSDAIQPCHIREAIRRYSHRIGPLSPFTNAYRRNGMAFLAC
UniProt Q15543, whole entry, looked up: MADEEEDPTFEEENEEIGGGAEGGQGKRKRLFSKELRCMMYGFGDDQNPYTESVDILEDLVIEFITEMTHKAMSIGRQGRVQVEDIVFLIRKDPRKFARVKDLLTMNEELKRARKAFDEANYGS
UniProt O94864: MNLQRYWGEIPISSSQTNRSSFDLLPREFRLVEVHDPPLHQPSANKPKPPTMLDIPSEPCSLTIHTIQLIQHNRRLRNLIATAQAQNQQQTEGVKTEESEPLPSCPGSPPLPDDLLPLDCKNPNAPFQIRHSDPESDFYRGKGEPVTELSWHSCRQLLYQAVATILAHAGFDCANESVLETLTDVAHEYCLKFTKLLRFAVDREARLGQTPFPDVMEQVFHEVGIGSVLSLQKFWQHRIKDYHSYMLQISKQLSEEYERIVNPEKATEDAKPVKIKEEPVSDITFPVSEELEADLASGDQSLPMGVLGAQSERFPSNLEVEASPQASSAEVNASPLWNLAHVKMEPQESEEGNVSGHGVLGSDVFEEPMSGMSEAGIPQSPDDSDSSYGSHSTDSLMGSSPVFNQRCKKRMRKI
UniProt P49888: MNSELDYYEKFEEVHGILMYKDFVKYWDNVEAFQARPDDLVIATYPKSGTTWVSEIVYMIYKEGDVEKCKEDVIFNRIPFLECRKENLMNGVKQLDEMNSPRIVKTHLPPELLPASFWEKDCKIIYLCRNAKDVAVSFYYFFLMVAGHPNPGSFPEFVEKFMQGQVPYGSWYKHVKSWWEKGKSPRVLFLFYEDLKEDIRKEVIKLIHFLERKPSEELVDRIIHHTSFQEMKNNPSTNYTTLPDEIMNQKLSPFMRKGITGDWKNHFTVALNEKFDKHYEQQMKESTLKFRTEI
UniProt Q9UMX1: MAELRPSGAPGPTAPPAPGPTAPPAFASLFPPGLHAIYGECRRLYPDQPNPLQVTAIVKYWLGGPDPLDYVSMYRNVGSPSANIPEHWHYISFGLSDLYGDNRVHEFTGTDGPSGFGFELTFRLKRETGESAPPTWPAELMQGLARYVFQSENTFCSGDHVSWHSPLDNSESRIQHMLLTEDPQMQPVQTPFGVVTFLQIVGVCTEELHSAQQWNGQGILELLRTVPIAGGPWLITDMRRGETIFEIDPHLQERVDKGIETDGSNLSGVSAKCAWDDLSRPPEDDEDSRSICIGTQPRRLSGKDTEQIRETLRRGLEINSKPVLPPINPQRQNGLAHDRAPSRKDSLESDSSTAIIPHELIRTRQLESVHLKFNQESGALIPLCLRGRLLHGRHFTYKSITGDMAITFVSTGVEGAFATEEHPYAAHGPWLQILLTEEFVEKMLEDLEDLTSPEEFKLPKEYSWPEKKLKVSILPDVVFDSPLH
UniProt Q9ULQ0: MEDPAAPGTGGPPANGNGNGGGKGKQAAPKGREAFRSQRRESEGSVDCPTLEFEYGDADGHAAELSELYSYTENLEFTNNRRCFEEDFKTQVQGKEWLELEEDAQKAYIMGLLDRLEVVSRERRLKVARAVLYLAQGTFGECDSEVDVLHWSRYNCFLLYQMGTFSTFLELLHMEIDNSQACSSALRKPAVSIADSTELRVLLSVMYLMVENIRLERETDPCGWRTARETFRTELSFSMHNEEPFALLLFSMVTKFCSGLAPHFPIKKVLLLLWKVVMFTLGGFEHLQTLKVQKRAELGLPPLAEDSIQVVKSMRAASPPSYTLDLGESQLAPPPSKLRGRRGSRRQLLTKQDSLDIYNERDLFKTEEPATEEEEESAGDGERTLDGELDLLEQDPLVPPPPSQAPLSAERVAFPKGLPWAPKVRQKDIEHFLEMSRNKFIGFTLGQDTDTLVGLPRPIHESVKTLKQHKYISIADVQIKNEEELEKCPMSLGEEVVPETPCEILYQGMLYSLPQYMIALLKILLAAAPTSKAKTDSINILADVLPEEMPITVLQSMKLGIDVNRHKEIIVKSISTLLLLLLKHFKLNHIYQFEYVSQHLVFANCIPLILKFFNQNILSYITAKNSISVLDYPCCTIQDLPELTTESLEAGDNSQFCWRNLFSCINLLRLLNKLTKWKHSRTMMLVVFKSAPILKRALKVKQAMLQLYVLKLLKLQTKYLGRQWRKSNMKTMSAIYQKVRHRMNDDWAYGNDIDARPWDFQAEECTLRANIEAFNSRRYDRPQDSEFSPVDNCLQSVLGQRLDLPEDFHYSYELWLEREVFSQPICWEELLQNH
UniProt Q8N2H4: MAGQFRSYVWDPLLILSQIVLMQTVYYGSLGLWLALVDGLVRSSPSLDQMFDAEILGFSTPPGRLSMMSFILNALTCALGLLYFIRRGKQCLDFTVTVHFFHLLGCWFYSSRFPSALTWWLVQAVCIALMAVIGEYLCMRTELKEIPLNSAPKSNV
UniProt Q9Y2Z0: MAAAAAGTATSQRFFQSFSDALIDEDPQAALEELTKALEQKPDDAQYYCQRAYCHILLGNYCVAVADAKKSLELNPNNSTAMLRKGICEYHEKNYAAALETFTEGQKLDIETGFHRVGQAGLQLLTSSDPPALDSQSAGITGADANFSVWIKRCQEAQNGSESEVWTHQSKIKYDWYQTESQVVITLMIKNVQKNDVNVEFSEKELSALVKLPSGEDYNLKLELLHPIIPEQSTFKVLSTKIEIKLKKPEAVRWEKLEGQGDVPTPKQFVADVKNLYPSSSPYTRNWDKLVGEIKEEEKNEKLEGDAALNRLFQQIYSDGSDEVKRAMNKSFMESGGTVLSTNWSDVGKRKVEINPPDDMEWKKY
UniProt O60347: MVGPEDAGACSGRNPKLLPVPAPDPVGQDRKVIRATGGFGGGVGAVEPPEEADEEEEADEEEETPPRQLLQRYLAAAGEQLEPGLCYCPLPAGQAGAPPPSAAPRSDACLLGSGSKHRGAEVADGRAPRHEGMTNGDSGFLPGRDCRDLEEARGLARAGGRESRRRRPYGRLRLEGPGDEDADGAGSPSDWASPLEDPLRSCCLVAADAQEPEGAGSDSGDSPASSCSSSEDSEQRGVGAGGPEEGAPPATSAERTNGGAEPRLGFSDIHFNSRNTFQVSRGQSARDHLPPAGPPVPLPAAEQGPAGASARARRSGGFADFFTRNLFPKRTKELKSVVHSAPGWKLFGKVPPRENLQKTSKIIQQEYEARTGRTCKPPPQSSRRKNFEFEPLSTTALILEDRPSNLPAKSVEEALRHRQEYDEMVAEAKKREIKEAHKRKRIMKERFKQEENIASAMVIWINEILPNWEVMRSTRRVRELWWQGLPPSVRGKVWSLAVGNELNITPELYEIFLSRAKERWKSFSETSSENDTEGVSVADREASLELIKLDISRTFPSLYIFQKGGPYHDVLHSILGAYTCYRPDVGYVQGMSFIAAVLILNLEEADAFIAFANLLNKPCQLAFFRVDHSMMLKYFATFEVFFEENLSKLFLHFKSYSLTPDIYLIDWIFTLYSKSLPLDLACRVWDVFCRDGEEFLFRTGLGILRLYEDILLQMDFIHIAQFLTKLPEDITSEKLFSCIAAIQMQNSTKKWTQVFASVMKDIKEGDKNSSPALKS
UniProt P08247, whole entry, looked up: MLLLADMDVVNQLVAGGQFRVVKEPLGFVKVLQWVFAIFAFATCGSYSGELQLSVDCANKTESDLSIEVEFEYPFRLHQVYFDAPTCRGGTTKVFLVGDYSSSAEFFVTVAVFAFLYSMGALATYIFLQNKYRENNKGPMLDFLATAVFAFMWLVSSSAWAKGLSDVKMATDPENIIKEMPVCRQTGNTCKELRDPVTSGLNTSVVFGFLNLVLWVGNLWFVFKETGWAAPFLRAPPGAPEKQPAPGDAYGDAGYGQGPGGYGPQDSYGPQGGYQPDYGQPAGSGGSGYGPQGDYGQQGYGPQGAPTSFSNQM

[2] = compound: COc1cc2nc(-c3cc(F)ccc3O)nc(N[C@@H]3CNC[C@H]3C(C)(C)O)c2cc1OC
Outline: as §1

[3] = compound: CS(=O)(=O)CCNCc1ccc(-c2ccc3ncnc(Nc4ccc(OCc5cccc(F)c5)c(Cl)c4)c3c2)o1 [lapatinib]
Outline: as §1

[4] = compound: CS(=O)(=O)N1CCN(Cc2cc3nc(-c4cccc5[nH]ncc45)nc(N4CCOCC4)c3s2)CC1 [pictilisib]
Outline: as §1

[5] = compound: C[C@@H](Oc1cc(-c2cnn(C3CCNCC3)c2)cnc1N)c1c(Cl)ccc(F)c1Cl [crizotinib]
Outline: as §1

[6] = compound: C[C@@H]1COCCN1C2=NC(=NC(=C2)C3(CC3)S(=O)(=O)C)C4=C5C=CNC5=CC=C4
Outline: as §1

[7] = compound: C[C@H](Nc1ncnc2nc[nH]c12)c1cc2cccc(Cl)c2c(=O)n1-c1ccccc1 [duvelisib]
Outline: as §1

[8] = compound: Cc1cc(Nc2cc(CN3CCOCC3)c3nc(C)c(Cc4ccc(Cl)cc4F)n3n2)n[nH]1 [gandotinib]
Outline: as §1

[9] = compound: Cc1cc(Nc2cc(N3CCN(C)CC3)nc(Sc3ccc(NC(=O)C4CC4)cc3)n2)n[nH]1 [tozasertib]
Outline: as §1

[10] = compound: Cc1cc(SCc2sc(-c3ccc(C(F)(F)F)cc3)nc2C)ccc1OCC(=O)O
Outline: as §1

[11] = compound: Cc1ccc(-n2nc(C(C)(C)C)cc2NC(=O)Nc2ccc(OCCN3CCOCC3)c3ccccc23)cc1 [doramapimod]
Outline: as §1

[12] = compound: Cc1ccc(C(=O)N(CCCN)[C@@H](c2nc3cc(Cl)ccc3c(=O)n2Cc2ccccc2)C(C)C)cc1 [ispinesib]
Outline: as §1

[13] = compound: CON(C)C(=O)N1N=C(c2cc(F)ccc2F)S[C@@]1(CCCN)c1ccccc1 [filanesib]
Outline: as §1

[14] = compound: COc1cc2ncnc(Nc3ccc(F)c(Cl)c3)c2cc1OCCCN1CCOCC1 [gefitinib]
Outline: as §1

[15] = compound: CS(=O)(=O)c1ccc(-c2cnc(N)c(C(=O)Nc3ccccc3)n2)cc1
Outline: as §1

[16] = compound: CO[C@H]1C[C@@H]2CC[C@@H](C)[C@@](O)(O2)C(=O)C(=O)N2CCCC[C@H]2C(=O)O[C@H]([C@H](C)C[C@@H]2CC[C@H](n3cnnn3)[C@H](OC)C2)CC(=O)[C@H](C)/C=C(\C)[C@@H](O)[C@@H](OC)C(=O)[C@H](C)C[C@H](C)/C=C/C=C/C=C/1C [zotarolimus]
Outline: as §1

[17] = compound: COc1cc(C(=O)O)ccc1NC(=O)[C@@H]1N[C@@H](CC(C)(C)C)[C@](C#N)(c2ccc(Cl)cc2F)[C@H]1c1cccc(Cl)c1F [idasanutlin]
Outline: as §1

[18] = compound: COc1cc(Nc2ncc3c(n2)-c2ccc(Cl)cc2C(c2c(F)cccc2OC)=NC3)ccc1C(=O)O [alisertib]
Outline: as §1

[19] = compound: COc1cccc2cc(-c3nc([C@H]4CC[C@H](C(=O)O)CC4)n4ncnc(N)c34)[nH]c12
Outline: as §1

[20] = compound: C[C@H](C1=CC=C(C=C1)C(=O)NC2=C3C=CNC3=NC=C2)N
Outline: as §1

Measured: log2 fold change

TBC1D10A (UniProt Q9BXI6)
inactive: [1] 0.029 | [2] 0.044 | [3] 0.106 | [4] -0.006 | [5] -0.108 | [6] 0.104 | [7] 0.045 | [8] -0.424 | [9] -0.105 | [10] 0.1 | [11] -0.027 | [12] -0.216

TACC3 (UniProt C9JWI7)
inactive: [12] -0.123

TASOR (UniProt Q9UK61)
inactive: [12] -0.031

SUGP2 (UniProt Q8IX01)
inactive: [13] -0.06 | [14] 0.083 | [15] -0.272 | [6] -0.411

TATDN1 isoform 2 (UniProt Q6P1N9)
inactive: [2] -0.303 | [3] -0.307 | [12] -0.154

SVBP (UniProt Q8N300)
inactive: [13] 0.009 | [16] 0.003 | [17] 0.056 | [18] 0.13 | [2] 0.06 | [19] 0.075 | [3] 0.043 | [4] 0.019 | [15] 0.032 | [6] 0.131 | [20] -0.024 | [7] 0.003 | [8] 0.129 | [9] -0.012 | [10] -0.079 | [12] 0.011

TAF5 (UniProt Q15542)
inactive: [1] 0.022 | [4] 0.158 | [5] -0.079 | [6] 0.07 | [8] 0.084 | [11] 0.214 | [12] -0.255

SUPT3H isoform 4 (UniProt O75486)
inactive: [12] 0.022

TAF13 (UniProt Q15543)
inactive: [13] 0.052 | [18] -0.052 | [19] -0.017 | [4] 0.289 | [15] 0.009 | [6] -0.161 | [7] 0.003 | [8] 0.141 | [9] -0.107 | [10] 0.028 | [12] 0.082

SUSD1 isoform 2 (UniProt Q6UWL2)
inactive: [1] -0.013 | [16] -0.021 | [17] 0.076 | [2] 0.06 | [14] -0.11 | [3] -0.109 | [4] -0.028 | [5] 0.04 | [20] 0.076 | [7] 0.005 | [8] 0.057 | [10] 0.03 | [11] -0.071

STOML1 (UniProt Q9UBI4)
inactive: [9] 0 | [12] -0.508

STS (UniProt P08842)
inactive: [17] 0.046 | [2] -0.099 | [3] -0.024

SUPT7L (UniProt O94864)
inactive: [1] -0.019 | [18] 0.006 | [14] -0.195 | [19] -0.011 | [5] 0.057 | [11] -0.002 | [12] 0.068

SULT1E1 (UniProt P49888)
inactive: [14] -0.102 | [4] -0.144 | [8] -0.156

STXBP4 (UniProt Q6ZWJ1)
inactive: [1] -0.165 | [5] -0.227 | [6] -0.115 | [11] 0.143

TADA1 (UniProt Q96BN2)
inactive: [2] 0.071 | [3] 0.23

TAB2 (UniProt Q9NYJ8)
inactive: [13] -0.202 | [15] 0.043 | [6] 0 | [9] 0.064 | [12] -0.183

STRN3 isoform 2 (UniProt Q13033)
inactive: [1] -0.01 | [16] 0.019 | [17] -0.194 | [18] -0.081 | [2] -0.03 | [14] 0.031 | [19] -0.012 | [3] -0.019 | [4] 0.285 | [5] -0.031 | [6] 0.019 | [20] -0.044 | [8] -0.115 | [9] -0.098 | [11] 0.043

TAF6L (UniProt Q9Y6J9)
inactive: [13] 0.177 | [16] 0.049 | [17] 0.001 | [18] -0.13 | [2] 0.166 | [14] 0.054 | [19] 0.038 | [3] -0.133 | [4] 0.166 | [15] -0.035 | [20] 0.058 | [8] -0.08 | [10] -0.121 | [12] -0.045

SYNGR1 isoform 3 (UniProt O43759)
inactive: [9] -0.219

TAOK2 (UniProt Q9UL54)
inactive: [1] 0.189 | [18] 0.107 | [2] -0.02 | [14] -0.095 | [19] 0.003 | [3] 0.022 | [4] 0.003 | [5] 0.157 | [6] -0.108 | [8] -0.045 | [11] -0.036 | [12] 0.035

STK40 isoform 4 (UniProt Q8N2I9)
inactive: [17] -0.139 | [2] 0.094 | [3] -0.181 | [7] 0.103 | [10] 0.086

SUFU (UniProt Q9UMX1)
inactive: [17] -0.051

TAZ (UniProt Q16635)
inactive: [2] 0.541 | [3] -0.366 | [7] 0.098 | [10] -0.012 | [12] -0.216

STON2 isoform 3 (UniProt Q8WXE9)
inactive: [1] 0.001 | [14] -0.024 | [4] -0.025 | [5] -0.053 | [8] -0.117 | [9] -0.122 | [11] 0.036 | [12] -0.173

STRIP2 (UniProt Q9ULQ0)
inactive: [13] -0.137 | [16] 0.001 | [17] -0.143 | [18] -0.006 | [2] 0.006 | [14] 0.007 | [19] -0.057 | [3] 0.035 | [4] 0.032 | [15] -0.065 | [6] -0.035 | [20] -0.01 | [7] 0.008 | [8] -0.021 | [9] -0.003 | [10] 0.007 | [12] -0.063

TAGLN (UniProt Q01995)
inactive: [1] -0.011 | [13] -0.339 | [2] 0.901 | [3] -0.2 | [4] -0.239 | [15] -0.085 | [5] -0.132 | [7] 0.128 | [8] 0.02 | [10] -0.183 | [11] -0.032

SUZ12 (UniProt Q15022)
inactive: [1] -0.171 | [17] 0.012 | [18] 0.087 | [2] -0.037 | [14] 0.033 | [19] 0.065 | [3] -0.013 | [5] -0.009 | [7] -0.495 | [10] 0.103 | [11] 0.038 | [12] 0.097

SYS1 (UniProt Q8N2H4)
inactive: [2] 0.06 | [3] 0.093 | [4] -0.007 | [7] 0.085 | [8] -0.154 | [10] -0.051 | [12] -0.128

STK35 (UniProt Q8TDR2)
inactive: [16] 0.043 | [17] 0.01 | [18] -0.148 | [2] 0.12 | [14] -0.009 | [19] -0.167 | [3] -0.135 | [20] -0.188 | [7] 0.142 | [10] -0.002 | [12] 0.251

STK36 (UniProt Q9NRP7)
inactive: [17] 0.093 | [18] -0.375 | [2] 0.42 | [14] 0.09 | [19] 0.039 | [3] -0.142 | [4] -0.043 | [7] -0.033 | [8] -0.203 | [10] 0.036 | [12] -0.209

TACC2 (UniProt O95359)
inactive: [13] -0.107 | [16] -0.003 | [17] -0.042 | [18] 0.1 | [2] 0.01 | [14] -0.027 | [19] 0.011 | [3] 0.011 | [4] 0.046 | [15] -0.045 | [20] -0.013 | [8] -0.154 | [10] -0.005 | [12] 0.145

TAF11 (UniProt Q15544)
inactive: [13] 0.176 | [16] -0.004 | [17] 0.116 | [18] -0.179 | [2] -0.089 | [19] -0.095 | [3] -0.01 | [4] -0.001 | [15] -0.019 | [20] 0.08 | [7] 0.088 | [8] -0.046 | [9] -0.145 | [10] -0.033 | [12] 0.025

SUGT1 isoform 2 (UniProt Q9Y2Z0)
inactive: [1] -0.151 | [18] -0.011 | [2] 0.186 | [19] 0.137 | [3] 0.172 | [5] 0.127 | [7] -0.012 | [9] -0.081 | [10] 0.084 | [11] -0.031 | [12] -0.079

TBC1D12 (UniProt O60347)
inactive: [16] 0.099 | [17] 0.037 | [18] 0.153 | [2] -0.036 | [19] -0.01 | [3] 0.052 | [6] -0.036 | [20] 0.355 | [9] -0.149

SYTL4 (UniProt Q96C24)
inactive: [13] 0.031 | [16] -0.006 | [17] 0.052 | [18] -0.217 | [2] 0.049 | [14] -0.206 | [19] -0.107 | [3] -0.093 | [15] 0.188 | [6] 0.078 | [20] 0.041 | [7] 0.007 | [9] -0.108 | [10] -0.082

TASP1 (UniProt Q9H6P5)
inactive: [18] 0.116 | [14] -0.179 | [19] -0.149 | [6] -0.617

Reprinted from the listing (three entries):
TAF11 (UniProt Q15544)
inactive: [13] 0.176 | [16] -0.004 | [17] 0.116 | [18] -0.179 | [2] -0.089 | [19] -0.095 | [3] -0.01 | [4] -0.001 | [15] -0.019 | [20] 0.08 | [7] 0.088 | [8] -0.046 | [9] -0.145 | [10] -0.033 | [12] 0.025

SUGT1 isoform 2 (UniProt Q9Y2Z0)
inactive: [1] -0.151 | [18] -0.011 | [2] 0.186 | [19] 0.137 | [3] 0.172 | [5] 0.127 | [7] -0.012 | [9] -0.081 | [10] 0.084 | [11] -0.031 | [12] -0.079

TBC1D12 (UniProt O60347)
inactive: [16] 0.099 | [17] 0.037 | [18] 0.153 | [2] -0.036 | [19] -0.01 | [3] 0.052 | [6] -0.036 | [20] 0.355 | [9] -0.149

(listing goes on)

SYP (UniProt P08247)
inactive: [1] -0.064 | [16] -0.124 | [17] 0 | [18] -0.008 | [2] -0.013 | [14] 0.039 | [19] 0.129 | [3] -0.07 | [4] 0.016 | [5] -0.026 | [6] 0.098 | [20] 0.053 | [7] -0.034 | [8] 0.047 | [9] 0.026 | [10] -0.03 | [11] 0.028 | [12] -0.103

Source: the supplement of paper PMC10849652
